# Results from paper PMC2906515.
# No constants are given. Whether binding was seen depends on the method and setting. Binding calls can cover weak binding; strength is not graded here. Tags and fused reporters may be left off the sequences shown.
# Molecular target: T1, MBP-TRPV4-Ct (C-terminal cytoplasmic domain of TRPV4 fused with MBP) (UniProt Q9ERZ8)
# T1 sequence: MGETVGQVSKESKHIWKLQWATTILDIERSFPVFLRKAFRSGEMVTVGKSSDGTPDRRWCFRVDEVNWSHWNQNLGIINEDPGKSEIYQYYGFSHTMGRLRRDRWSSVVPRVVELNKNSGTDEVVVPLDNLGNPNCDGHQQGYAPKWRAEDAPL
# Assay: pull-down; MBP fusion protein on amylose resin incubated with purified soluble tubulin (1 mg/ml) or purified soluble actin (0.1 mg/ml), 1 hour at RT, PEM-S buffer; actin in the presence or absence of Ca2+; eluted with maltose; immunoblot; both purified
substance,measurement,value
neuron-specific β-III tubulin in purified porcine brain tubulin (complex),binding,binds
